Measured values reported in publication PMC11601148, “Effects of proline substitution/inclusion on the nanostructure of a self-assembling β-sheet-forming peptide†” (RSC Advances, 2024).
These are yes or no findings as the source states them, for the method shown.

Key:
FEFKPEFK [1] = test: ITC; NaOH (0.0025, 0.0125, 0.025 M) titrated into peptide at 0.1, 0.5 and 1 mg/mL in water, 25 °C; the energy change on deprotonation is read as a sign of self-assembly, no binding constant is fitted; both purified
FEFKPEFK [2] = test: ATR-FTIR spectroscopy; peptide at 40 mg/mL, pH adjusted to ~4; beta-sheet bands at 1636 and 1697 cm^-1; both purified

B1: FEFKPEFK (peptide)
peptide: FEFKPEFK
binding (FEFKPEFK [1]): no binding (tested: 0.1, 0.5 and 1 mg mL^-1)
binding (FEFKPEFK [2]): no binding (tested: 40 mg mL^-1)
